Publication PMC9334090
No constants are given. Whether binding was seen depends on the method and setting. Binding seen in cells or lysates may run through a third protein. Binding calls can cover weak binding; strength is not graded here.

By UniProt entry, the sequences of proteins in these tests, tags left out. Where a name states a change or a piece, a line headed by the entry shows the natural chain unless it says otherwise.
UniProt O15016: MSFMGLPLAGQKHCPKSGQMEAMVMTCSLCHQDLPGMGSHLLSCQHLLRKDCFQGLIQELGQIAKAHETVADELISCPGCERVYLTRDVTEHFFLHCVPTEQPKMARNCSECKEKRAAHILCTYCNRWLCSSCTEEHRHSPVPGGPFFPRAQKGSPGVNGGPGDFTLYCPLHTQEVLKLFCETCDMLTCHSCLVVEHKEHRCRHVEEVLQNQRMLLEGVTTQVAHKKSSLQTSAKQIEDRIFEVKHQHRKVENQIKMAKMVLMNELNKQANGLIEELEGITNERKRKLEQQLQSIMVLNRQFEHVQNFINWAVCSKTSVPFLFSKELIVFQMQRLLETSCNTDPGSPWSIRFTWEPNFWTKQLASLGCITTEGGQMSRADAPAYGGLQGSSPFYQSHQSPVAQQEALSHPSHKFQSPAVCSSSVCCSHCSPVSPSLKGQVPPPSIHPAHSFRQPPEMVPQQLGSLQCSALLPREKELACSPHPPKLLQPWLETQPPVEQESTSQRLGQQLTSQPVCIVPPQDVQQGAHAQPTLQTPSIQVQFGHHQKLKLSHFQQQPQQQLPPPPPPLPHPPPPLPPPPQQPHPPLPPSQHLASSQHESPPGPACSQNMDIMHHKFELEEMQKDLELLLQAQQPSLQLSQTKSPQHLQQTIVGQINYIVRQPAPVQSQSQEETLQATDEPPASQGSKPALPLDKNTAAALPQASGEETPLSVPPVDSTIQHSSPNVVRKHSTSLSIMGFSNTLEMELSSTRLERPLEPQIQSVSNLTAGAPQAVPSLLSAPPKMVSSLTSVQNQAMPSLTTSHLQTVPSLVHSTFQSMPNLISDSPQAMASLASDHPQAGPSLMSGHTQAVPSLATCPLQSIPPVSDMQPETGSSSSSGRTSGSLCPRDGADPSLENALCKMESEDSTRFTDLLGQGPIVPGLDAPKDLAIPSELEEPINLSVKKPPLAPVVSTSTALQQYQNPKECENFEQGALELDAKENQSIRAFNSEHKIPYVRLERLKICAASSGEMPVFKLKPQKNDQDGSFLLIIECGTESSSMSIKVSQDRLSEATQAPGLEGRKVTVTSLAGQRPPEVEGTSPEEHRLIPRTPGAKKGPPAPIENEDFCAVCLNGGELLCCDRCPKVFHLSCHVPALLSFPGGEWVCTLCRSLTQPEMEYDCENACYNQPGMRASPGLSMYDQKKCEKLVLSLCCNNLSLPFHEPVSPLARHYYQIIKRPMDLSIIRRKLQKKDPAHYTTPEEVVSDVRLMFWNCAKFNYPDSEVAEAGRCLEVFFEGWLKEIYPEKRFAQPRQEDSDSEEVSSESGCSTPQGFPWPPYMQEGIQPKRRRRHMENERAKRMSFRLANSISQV
UniProt P08253: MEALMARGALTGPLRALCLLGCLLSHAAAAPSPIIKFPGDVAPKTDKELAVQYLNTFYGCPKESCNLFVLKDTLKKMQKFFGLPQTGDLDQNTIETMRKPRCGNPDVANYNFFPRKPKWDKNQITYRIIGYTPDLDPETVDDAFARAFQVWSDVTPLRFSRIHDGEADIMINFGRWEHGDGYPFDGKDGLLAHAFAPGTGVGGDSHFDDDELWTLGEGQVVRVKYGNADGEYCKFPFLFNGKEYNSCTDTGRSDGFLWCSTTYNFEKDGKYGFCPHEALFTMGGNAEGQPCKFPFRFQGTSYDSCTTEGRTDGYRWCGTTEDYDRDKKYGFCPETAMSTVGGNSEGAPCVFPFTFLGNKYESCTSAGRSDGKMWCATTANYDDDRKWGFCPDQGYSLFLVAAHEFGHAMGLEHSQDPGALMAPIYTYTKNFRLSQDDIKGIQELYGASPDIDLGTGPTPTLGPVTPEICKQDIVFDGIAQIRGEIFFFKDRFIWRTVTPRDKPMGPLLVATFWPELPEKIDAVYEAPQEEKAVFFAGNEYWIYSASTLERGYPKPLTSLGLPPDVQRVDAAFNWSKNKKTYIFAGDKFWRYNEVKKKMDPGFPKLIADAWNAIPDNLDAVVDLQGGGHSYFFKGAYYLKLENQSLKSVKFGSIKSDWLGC
UniProt P14780: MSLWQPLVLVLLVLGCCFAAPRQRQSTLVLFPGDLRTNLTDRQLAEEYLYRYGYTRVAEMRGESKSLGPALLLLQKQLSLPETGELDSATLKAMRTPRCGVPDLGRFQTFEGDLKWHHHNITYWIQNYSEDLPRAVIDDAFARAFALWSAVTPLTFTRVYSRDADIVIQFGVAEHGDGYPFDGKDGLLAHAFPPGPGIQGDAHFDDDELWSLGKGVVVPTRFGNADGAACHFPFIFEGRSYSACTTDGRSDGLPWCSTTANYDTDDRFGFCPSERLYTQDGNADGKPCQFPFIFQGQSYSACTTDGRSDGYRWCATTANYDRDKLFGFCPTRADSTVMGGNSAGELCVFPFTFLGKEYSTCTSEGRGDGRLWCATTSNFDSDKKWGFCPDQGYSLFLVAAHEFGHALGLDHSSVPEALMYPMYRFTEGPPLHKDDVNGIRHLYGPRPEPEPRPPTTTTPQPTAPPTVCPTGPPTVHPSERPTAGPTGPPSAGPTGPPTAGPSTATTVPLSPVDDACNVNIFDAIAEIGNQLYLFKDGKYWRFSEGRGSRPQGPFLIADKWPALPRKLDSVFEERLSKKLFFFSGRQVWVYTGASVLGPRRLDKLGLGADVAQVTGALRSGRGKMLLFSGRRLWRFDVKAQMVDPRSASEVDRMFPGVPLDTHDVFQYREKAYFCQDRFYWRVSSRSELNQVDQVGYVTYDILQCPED

Molecular target: TRIM66 (human (endogenous in NSCLC cells)) (UniProt O15016)
Assay: co-IP; cell lysate in Co-IP buffer with protease inhibitors, precleared with protein A/G beads; immunoprecipitation with TRIM66 antibody or control IgG for more than 4 h at 4°C; protein A/G capture, washed three times with PBS; Western blot

Row | binding | Substance
1 | no binding | MMP2 (from UniProt P08253)
2 | binds | Matrix metalloproteinase 9 (from UniProt P14780)
